For the experiment, the target named is recombinant human β-Klotho (UniProt Q86Z14 53-996, biotinylated in the AlphaScreen assays (site not stated)). The experiment is described as follows: binding EC50.

Sequences of proteins named here, by UniProt entry; tags and fusion partners are left off. Residues count along the entry.
UniProt Q86Z14, 53-996: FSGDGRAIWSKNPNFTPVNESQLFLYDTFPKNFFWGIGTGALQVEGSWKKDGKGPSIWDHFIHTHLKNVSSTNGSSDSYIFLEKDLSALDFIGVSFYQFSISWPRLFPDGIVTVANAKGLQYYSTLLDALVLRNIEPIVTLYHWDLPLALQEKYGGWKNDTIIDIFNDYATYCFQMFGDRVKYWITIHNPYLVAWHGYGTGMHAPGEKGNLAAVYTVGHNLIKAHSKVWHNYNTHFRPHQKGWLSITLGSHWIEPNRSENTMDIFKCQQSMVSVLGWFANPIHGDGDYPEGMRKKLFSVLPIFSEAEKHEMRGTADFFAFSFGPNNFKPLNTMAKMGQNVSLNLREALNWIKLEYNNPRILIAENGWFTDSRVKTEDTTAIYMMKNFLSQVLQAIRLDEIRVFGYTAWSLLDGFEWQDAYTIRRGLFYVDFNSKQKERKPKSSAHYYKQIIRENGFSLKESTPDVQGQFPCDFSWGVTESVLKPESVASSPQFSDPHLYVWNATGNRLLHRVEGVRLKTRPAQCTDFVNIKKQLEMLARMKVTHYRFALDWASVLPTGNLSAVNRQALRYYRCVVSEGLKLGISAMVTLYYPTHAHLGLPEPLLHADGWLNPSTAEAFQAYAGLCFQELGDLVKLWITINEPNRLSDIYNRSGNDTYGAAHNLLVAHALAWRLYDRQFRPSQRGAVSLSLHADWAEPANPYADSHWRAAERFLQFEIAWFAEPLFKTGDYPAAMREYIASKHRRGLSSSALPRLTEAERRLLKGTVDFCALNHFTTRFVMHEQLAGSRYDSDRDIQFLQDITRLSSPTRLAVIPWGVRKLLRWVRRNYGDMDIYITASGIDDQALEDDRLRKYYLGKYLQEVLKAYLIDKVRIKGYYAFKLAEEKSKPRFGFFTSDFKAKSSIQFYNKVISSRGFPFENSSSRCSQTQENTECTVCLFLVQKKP

B1: β-Klotho walked dimer bKWD37 (designed binder)
chain: CLSDQFQCNNYETCIPRPWLCDGDDDCVDGSDEEDCETRTCHSFNQFECRNGQCIPLHLVCDGVPDCGDNSDETDCGDSHILPFSTPGPST
With B1, the concentration giving a half-maximal response (EC50) (commonly the concentration giving half of the maximal effect) was 2.4 nM.

(Values after US20130197191A1 (published 2013).)
